Results are given in words; binding and its absence hold for the method and conditions named. Some results given as binding are weak or reduced against the parent protein; the word gives no strength. Tags and fused reporters may be left off the sequences shown.
T1: MBP-tagged full-length PRG-1 (C. elegans, UniProt P90786 1-824, Atto-594 label (in the cluster imaging only))
T1 construct: PRG-1, the PIWI protein of C. elegans, full length; Cloned into pMAL-C5X; Unlabelled in the MST titration; also called MBP-PRG-1; MBP-PRG; source: E. coli BL21 (DE3), purified (RNaseA-treated lysate, amylose resin, size-exclusion chromatography)
T1 sequence (looked up): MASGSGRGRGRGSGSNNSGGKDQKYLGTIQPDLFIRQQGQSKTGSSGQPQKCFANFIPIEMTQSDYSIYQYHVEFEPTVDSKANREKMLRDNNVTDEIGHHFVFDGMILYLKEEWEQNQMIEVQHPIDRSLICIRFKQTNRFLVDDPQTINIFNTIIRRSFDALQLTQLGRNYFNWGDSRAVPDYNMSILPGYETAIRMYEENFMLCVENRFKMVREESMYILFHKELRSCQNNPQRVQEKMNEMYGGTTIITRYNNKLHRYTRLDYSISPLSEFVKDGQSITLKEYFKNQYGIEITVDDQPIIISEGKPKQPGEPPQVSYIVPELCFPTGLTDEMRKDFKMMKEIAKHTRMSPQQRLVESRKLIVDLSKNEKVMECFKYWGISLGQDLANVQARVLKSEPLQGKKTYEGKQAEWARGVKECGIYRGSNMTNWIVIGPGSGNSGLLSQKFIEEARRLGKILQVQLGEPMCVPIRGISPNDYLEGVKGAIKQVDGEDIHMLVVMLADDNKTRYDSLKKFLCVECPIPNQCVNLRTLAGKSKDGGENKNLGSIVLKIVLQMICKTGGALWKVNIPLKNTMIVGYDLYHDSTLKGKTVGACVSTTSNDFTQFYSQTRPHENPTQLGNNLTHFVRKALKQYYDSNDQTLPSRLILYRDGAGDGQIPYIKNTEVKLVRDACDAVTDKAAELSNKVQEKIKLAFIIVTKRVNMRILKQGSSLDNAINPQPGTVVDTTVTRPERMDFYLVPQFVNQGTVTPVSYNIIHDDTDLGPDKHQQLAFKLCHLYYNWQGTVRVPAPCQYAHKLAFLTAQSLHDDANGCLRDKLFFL

T2: MBP-tagged full-length DEPS-1 (C. elegans) (UniProt Q9N303)
T2 sequence (chain, atto-488 NHS ester label): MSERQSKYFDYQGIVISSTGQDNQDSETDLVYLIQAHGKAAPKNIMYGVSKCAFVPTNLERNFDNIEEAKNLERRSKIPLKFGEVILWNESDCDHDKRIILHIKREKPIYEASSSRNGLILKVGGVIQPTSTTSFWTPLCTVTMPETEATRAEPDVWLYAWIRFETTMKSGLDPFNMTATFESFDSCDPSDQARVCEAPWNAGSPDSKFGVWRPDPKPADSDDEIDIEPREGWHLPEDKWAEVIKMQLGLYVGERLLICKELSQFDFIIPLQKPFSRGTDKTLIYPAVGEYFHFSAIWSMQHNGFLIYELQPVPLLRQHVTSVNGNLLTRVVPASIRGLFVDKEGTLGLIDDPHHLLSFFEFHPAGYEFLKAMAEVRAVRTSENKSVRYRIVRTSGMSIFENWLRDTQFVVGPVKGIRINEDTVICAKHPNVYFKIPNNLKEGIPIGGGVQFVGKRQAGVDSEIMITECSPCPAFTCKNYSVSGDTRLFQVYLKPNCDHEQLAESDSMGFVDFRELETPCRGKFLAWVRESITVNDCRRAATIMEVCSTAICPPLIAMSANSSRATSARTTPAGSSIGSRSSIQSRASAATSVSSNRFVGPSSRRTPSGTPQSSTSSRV


What was measured:
[1] = molecular target: T1, MBP-tagged full-length PRG-1; assay: confocal imaging of labelled recombinant protein clusters; 3.4 µM Atto-488 MBP-DEPS-1 with 0.6 µM Atto-594 MBP-PRG-1 in 5% PEG2000; PRG-1 preincubated with 2 mM DEPS-1 PBS peptide or 2 mM FGFR2 peptide; both purified
[2] = molecular target: T2, MBP-tagged full-length DEPS-1 (C. elegans); assay: as above

binding [1] | binding [2] | Binder
binds |  | IPLKFGEVILWNESDCDHDK (atto-488 NHS ester label (in the MST assay)) [DEPS-1 PBS motif peptide]
 | binds | MBP-tagged full-length PRG-1 (protein, UniProt P90786 1-824, Atto-594 label (in the cluster imaging only)) MASGSGRGRGRGSGSNNSGGKDQKYLGTIQPDLFIRQQGQSKTGSSGQPQKCFANFIPIEMTQSDYSIYQYHVEFEPTVDSKANREKMLRDNNVTDEIGHHFVFDGMILYLKEEWEQNQMIEVQHPIDRSLICIRFKQTNRFLVDDPQTINIFNTIIRRSFDALQLTQLGRNYFNWGDSRAVPDYNMSILPGYETAIRMYEENFMLCVENRFKMVREESMYILFHKELRSCQNNPQRVQEKMNEMYGGTTIITRYNNKLHRYTRLDYSISPLSEFVKDGQSITLKEYFKNQYGIEITVDDQPIIISEGKPKQPGEPPQVSYIVPELCFPTGLTDEMRKDFKMMKEIAKHTRMSPQQRLVESRKLIVDLSKNEKVMECFKYWGISLGQDLANVQARVLKSEPLQGKKTYEGKQAEWARGVKECGIYRGSNMTNWIVIGPGSGNSGLLSQKFIEEARRLGKILQVQLGEPMCVPIRGISPNDYLEGVKGAIKQVDGEDIHMLVVMLADDNKTRYDSLKKFLCVECPIPNQCVNLRTLAGKSKDGGENKNLGSIVLKIVLQMICKTGGALWKVNIPLKNTMIVGYDLYHDSTLKGKTVGACVSTTSNDFTQFYSQTRPHENPTQLGNNLTHFVRKALKQYYDSNDQTLPSRLILYRDGAGDGQIPYIKNTEVKLVRDACDAVTDKAAELSNKVQEKIKLAFIIVTKRVNMRILKQGSSLDNAINPQPGTVVDTTVTRPERMDFYLVPQFVNQGTVTPVSYNIIHDDTDLGPDKHQQLAFKLCHLYYNWQGTVRVPAPCQYAHKLAFLTAQSLHDDANGCLRDKLFFL

From publication PMC7447803, “DEPS-1 is required for piRNA-dependent silencing and PIWI condensate organisation in Caenorhabditis elegans” (Nature Communications, 2020)
